Results from one PubChem assay

From PubChem BioAssay record AID1159506 (NCATS, 2015).

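Luminescence from an EWS-FLI1 target-promoter (NR0B1) reporter, set against a CMV-promoter reporter, two days after silencing single genes in TC32 Ewing sarcoma cells. Each siRNA was applied at 20 nM. A z-score of the log NR0B1-over-CMV signal, less the median of siRNAs with the same seed; more negative means a stronger specific loss of the NR0B1 reporter.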

The strongest results of the screen are mostly left out here. Sequences are the guide (antisense) strand, without overhang.

For UCUUGGAGGAGGAUCGUCC against SSSCA1 the result was seed-corrected z-score 0.5203. UUCUAGACCUUGGAAGCCC against OR51G1 read seed-corrected z-score -0.3947. Result for ACGGGUAAUAGUAGGAGGG against NKX3-2 was seed-corrected z-score -0.8448. With UUGGUUUCGCUGAUGUCCU against KCNH3 the assay gave seed-corrected z-score -0.5321. AAGGUAUAGAUGACCGUCA against OPN4 gave seed-corrected z-score -1.25.

For UCGGGAUAUGGAGAGGUUG against FAM135B the result was seed-corrected z-score 0.7215. With UUCUUGUGGAAGUCACCGG against TNFRSF25 the assay gave seed-corrected z-score 1.246. For UAUAACUUGACCAACAGCC against RPL18 the result was seed-corrected z-score -0.567. For AAAGUAGAGGGCAUUGUUG against GPR83 the result was seed-corrected z-score 0.1644. UCUCGGAAUUGUAUGAUAG against APPL2 gave seed-corrected z-score 0.2264.

AUCGUUAACAUCCAGCACC against PCDHB15 gave seed-corrected z-score 1.215. UGUAAUUGGACCUCUAUUG against AP5M1 read seed-corrected z-score 0.3765. UUGAAUACCCAUCUGAUCC against CLDN25 gave seed-corrected z-score 1.186. UGUACUUCCACUGUAUCAC against SLC30A1 gave seed-corrected z-score 0.06062. For UUUGUAUUUAAGGCUGAAG against SAPCD1 the result was seed-corrected z-score -0.09391.

UCUUUUUGCCCGUAUGCCG against RPL13 read seed-corrected z-score -1.096. AGAAGACAAAGUACUGAGU against OR5A2 read seed-corrected z-score 0.2672. UGAGUUUAUGUAGCCGCUG against COL17A1 gave seed-corrected z-score -1.017. Result for UGAGGAAACAGGUUACAUC against CLEC4E was seed-corrected z-score 0.3405. UAUUAGGUUUCUCAAAUGG against KAT2A gave seed-corrected z-score -0.415.

With UUCAAUGUUAUUGUUGAGC against AMBRA1 the assay gave seed-corrected z-score 0.5652. UGCUCAUCCAUCACAAGGC against TDGF1 read seed-corrected z-score 0.7304. Result for UACGGUCUAAGAAUACCUG against TOR1AIP2 was seed-corrected z-score 0.002352. AUUACCUCCAACUUUAGCC against IVNS1ABP read seed-corrected z-score 0.5656. With UUUCUUUGUAUCACAGCAC against DEFB129 the assay gave seed-corrected z-score 0.076.

Result for UGCAUGUCCUCUCUCAUCC against STK32C was seed-corrected z-score -1.025. Result for AAUGUUAUGCAGUGACUGG against PSMD9 was seed-corrected z-score 1.139. UUGCUAUCAGAGGUGCUCC against HDHD2 gave seed-corrected z-score 0.2652. Result for UUUCUCAUAAAUACAGCAG against PPP1R11 was seed-corrected z-score -0.4328. For ACAGGUACAAGUACAUGAG against NDUFB6 the result was seed-corrected z-score -0.8231.

With UCAGUUUCAGGAUGUGGUG against CCDC185 the assay gave seed-corrected z-score -1.959.

Repeated from the top, 4 entries:

{"strand": "UCUUGGAGGAGGAUCGUCC", "target gene": "SSSCA1", "seed-corrected z-score": "0.5203"}
{"strand": "UUCUAGACCUUGGAAGCCC", "target gene": "OR51G1", "seed-corrected z-score": "-0.3947"}
{"strand": "ACGGGUAAUAGUAGGAGGG", "target gene": "NKX3-2", "seed-corrected z-score": "-0.8448"}
{"strand": "UUGGUUUCGCUGAUGUCCU", "target gene": "KCNH3", "seed-corrected z-score": "-0.5321"}